The other results are listed elsewhere or left out. Most values lie at the level of the controls, where differences are scatter.

By UniProt entry, the sequences of proteins in these tests, tags left out. Where a name states a change or a piece, a line headed by the entry shows the natural chain unless it says otherwise.
UniProt Q6UB98: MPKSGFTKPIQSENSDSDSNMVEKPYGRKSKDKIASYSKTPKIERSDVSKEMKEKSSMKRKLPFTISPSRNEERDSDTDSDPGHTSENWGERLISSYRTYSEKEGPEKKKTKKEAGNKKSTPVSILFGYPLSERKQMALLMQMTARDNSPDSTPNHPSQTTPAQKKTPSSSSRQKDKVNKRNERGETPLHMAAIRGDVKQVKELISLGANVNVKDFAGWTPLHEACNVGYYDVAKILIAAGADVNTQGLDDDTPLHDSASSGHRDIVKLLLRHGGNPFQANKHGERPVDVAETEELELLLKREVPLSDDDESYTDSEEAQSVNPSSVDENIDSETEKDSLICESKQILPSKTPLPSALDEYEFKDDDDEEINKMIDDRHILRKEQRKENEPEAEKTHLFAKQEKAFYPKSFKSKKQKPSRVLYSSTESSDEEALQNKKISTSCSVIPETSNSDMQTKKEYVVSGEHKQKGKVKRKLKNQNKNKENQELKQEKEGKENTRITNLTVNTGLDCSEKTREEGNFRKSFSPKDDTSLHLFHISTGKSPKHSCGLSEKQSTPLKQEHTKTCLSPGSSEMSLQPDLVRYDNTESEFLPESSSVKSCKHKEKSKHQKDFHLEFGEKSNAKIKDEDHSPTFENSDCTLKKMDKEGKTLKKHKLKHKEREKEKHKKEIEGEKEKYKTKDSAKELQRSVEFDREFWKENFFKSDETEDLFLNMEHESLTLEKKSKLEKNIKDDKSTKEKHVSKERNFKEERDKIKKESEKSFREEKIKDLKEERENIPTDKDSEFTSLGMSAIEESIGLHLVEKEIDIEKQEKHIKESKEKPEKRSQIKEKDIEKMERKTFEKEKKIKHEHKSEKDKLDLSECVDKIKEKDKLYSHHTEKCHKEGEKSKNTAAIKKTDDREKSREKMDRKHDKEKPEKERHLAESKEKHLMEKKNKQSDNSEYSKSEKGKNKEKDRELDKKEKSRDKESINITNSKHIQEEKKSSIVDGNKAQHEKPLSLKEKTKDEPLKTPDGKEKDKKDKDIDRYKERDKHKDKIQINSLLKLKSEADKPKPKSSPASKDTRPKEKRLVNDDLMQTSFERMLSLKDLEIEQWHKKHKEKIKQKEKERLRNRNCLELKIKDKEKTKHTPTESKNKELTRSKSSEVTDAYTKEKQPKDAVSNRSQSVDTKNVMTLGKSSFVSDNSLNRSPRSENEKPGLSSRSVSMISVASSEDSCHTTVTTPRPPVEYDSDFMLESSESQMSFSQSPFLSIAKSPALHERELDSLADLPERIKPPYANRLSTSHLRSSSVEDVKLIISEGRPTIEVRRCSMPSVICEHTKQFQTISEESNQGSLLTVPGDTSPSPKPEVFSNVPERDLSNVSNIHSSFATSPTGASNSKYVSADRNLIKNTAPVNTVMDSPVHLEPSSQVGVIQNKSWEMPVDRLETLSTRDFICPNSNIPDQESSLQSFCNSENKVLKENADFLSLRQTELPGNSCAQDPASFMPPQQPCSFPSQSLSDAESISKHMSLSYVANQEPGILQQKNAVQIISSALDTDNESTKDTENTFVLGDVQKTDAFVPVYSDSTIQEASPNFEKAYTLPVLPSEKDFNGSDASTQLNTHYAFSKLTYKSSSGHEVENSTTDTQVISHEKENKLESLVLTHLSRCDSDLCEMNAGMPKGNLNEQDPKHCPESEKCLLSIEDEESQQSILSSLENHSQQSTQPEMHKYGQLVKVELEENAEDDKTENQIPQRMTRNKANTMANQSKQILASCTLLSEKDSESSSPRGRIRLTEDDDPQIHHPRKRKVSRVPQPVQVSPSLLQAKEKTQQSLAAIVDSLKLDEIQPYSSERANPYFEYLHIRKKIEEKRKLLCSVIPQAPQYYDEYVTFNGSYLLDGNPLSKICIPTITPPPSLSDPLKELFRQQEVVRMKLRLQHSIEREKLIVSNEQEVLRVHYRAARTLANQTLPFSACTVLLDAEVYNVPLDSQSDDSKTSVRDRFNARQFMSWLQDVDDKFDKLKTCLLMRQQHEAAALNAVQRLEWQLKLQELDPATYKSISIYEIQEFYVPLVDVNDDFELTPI
UniProt Q6NUN9: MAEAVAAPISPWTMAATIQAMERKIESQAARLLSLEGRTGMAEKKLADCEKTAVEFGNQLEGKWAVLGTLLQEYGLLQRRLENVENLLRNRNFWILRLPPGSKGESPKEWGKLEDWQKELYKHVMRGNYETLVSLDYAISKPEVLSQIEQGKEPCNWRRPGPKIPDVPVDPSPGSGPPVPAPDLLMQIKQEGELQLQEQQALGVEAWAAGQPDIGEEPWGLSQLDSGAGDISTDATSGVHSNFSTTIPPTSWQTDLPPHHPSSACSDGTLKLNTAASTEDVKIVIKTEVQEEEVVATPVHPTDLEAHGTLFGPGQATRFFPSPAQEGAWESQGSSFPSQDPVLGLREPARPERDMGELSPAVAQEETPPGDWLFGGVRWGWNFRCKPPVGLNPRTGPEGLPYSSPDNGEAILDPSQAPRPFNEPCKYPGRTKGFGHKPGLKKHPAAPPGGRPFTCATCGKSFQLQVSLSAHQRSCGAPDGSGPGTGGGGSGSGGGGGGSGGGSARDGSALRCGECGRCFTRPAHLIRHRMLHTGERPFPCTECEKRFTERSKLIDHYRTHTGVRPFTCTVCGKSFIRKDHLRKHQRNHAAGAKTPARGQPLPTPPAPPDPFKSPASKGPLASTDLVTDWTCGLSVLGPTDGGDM
UniProt Q6NVY1: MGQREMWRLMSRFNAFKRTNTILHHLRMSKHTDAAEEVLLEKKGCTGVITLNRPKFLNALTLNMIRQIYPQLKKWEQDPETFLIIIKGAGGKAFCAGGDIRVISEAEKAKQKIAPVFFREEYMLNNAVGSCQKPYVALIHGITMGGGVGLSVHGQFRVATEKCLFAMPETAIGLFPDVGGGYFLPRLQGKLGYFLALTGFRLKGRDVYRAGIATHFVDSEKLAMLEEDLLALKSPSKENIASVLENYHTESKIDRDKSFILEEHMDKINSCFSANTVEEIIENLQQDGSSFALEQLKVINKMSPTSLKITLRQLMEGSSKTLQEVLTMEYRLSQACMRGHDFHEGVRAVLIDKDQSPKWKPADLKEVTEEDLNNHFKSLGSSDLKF
UniProt Q6PI98, whole entry: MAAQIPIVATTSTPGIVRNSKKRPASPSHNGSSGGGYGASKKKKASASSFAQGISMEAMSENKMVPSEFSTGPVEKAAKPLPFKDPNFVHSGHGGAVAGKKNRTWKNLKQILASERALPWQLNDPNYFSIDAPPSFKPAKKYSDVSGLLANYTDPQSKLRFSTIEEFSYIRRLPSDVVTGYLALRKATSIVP
UniProt Q6ZMT4: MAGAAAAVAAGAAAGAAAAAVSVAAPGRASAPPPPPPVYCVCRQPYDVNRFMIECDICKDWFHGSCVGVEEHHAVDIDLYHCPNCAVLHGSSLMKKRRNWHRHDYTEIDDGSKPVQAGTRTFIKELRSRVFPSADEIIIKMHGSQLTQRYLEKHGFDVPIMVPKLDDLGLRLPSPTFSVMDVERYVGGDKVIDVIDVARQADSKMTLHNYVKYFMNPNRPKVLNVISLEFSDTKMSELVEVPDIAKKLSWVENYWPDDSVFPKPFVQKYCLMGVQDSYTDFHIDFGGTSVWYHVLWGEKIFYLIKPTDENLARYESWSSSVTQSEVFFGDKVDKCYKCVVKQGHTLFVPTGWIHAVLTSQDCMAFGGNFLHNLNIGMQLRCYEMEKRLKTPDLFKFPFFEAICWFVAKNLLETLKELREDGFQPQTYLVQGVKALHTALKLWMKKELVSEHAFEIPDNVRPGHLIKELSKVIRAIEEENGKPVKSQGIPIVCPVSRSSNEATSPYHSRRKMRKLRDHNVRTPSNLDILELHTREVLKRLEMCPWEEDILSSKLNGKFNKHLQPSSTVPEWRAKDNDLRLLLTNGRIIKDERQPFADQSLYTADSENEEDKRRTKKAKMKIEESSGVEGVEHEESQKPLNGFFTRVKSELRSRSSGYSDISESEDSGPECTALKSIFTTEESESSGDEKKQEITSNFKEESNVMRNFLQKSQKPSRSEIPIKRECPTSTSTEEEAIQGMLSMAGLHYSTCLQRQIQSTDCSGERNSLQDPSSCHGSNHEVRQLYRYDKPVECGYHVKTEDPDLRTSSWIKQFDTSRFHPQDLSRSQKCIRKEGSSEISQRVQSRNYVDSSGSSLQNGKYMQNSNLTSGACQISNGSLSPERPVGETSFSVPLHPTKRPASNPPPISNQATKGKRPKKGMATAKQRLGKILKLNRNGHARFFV
UniProt Q6PGQ7, whole entry: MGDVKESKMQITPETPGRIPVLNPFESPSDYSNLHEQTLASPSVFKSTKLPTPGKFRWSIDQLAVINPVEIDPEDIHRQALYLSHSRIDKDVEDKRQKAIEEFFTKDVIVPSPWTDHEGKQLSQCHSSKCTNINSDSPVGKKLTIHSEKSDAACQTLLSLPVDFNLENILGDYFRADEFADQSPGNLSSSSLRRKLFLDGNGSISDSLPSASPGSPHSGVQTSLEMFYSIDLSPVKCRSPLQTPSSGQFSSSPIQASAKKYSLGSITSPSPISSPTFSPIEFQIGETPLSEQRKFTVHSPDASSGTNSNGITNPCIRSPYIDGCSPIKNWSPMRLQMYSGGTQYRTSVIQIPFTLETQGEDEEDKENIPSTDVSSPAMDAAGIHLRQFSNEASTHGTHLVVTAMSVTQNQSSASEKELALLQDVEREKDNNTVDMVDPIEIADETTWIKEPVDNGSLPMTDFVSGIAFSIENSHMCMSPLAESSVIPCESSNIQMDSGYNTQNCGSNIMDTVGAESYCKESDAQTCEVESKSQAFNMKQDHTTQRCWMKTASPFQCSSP
UniProt Q6EKJ0: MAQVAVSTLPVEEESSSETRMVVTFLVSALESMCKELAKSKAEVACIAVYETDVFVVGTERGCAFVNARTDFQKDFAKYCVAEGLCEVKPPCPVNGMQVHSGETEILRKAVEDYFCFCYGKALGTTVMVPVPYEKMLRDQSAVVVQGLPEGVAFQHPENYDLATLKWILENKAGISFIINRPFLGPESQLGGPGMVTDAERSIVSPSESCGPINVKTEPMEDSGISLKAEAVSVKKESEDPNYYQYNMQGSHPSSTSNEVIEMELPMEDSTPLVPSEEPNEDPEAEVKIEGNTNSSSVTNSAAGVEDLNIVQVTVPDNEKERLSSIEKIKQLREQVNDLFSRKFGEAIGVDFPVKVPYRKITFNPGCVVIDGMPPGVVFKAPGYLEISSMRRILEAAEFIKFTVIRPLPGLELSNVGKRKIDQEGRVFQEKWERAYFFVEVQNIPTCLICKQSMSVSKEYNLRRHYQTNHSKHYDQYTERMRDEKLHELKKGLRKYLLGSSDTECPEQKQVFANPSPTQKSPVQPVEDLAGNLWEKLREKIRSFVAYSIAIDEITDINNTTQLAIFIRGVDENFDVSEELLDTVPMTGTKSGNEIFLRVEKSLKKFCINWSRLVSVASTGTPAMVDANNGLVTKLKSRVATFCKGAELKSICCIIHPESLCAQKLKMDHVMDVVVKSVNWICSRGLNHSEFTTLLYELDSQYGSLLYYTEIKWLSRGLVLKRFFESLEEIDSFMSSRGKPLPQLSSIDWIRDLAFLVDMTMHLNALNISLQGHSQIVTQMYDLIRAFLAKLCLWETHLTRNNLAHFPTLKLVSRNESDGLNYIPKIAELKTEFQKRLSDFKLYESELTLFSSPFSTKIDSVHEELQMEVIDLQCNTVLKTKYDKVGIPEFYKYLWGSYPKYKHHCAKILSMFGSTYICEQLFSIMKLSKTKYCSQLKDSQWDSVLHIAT
UniProt Q658Y4: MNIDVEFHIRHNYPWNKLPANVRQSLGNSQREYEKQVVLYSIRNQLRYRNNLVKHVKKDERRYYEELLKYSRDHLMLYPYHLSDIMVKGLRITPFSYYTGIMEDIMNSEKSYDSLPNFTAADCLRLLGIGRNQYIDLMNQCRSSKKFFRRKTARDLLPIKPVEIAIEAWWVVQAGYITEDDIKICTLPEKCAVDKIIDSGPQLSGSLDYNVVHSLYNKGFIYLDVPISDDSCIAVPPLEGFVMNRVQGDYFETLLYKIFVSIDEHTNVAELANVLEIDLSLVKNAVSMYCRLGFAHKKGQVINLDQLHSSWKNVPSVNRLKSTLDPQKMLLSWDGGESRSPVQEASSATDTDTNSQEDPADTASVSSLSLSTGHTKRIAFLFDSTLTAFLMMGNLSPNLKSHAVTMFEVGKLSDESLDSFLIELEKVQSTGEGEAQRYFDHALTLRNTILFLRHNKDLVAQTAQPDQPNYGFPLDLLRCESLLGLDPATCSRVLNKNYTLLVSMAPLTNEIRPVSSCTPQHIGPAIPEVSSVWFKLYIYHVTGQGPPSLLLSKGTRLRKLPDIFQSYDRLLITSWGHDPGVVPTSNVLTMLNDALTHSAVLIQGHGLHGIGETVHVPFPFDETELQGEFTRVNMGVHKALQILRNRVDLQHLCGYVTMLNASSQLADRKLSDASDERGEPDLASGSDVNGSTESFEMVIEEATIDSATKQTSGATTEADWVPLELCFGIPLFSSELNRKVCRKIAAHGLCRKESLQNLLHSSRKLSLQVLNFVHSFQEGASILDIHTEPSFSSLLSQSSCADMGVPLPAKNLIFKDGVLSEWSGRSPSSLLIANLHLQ

The values that follow come from the supplement of paper PMC12819154, “High-throughput peptide-centric local stability assay extends protein–ligand identification to membrane proteins, tissues and bacteria” (Nature Structural & Molecular Biology, 2025).

Compound in the experiment: CN[C@@H]1C[C@H]2O[C@@](C)([C@@H]1OC)n1c3ccccc3c3c4c(c5c6ccccc6n2c5c31)C(=O)NC4 [staurosporine]
The experiment in a line: log2 fold change of tryptic peptide abundance, ligand vs vehicle (limited proteolysis) (log2 ratio); higher = more trypsin-susceptible (destabilized). Conditions: ligand concentration: 20 uM; sample: K562 cleared lysate; digestion: 4 min, 22 C (HT-PELSA RT4min, Orbitrap Astral).
For the target “ANKRD12 (peptide sequence: KENEPEAEKTHLFAK, peptide start residue: 387) (UniProt Q6UB98)”, the log2 fold change is 0.797. Regarding “UniProt Q63HQ0 (peptide sequence: LRLEEEALYAAQR, peptide start residue: 102)”, the log2 fold change is -0.0951.

As for “CRTC3 (peptide sequence: SNPSIQATLNK, peptide start residue: 329) (UniProt Q6UUV7)”, the log2 fold change was determined as 0.141. In the case of “ZNF746 (peptide sequence: CKPPVGLNPR, peptide start residue: 385) (UniProt Q6NUN9)”, the log2 fold change was -0.773.

For the target “PGM2L1 (peptide sequence: TSGTEPKIK, peptide start residue: 559) (UniProt Q6PCE3)”, the log2 fold change came to 0.307. “ATAD2 (peptide sequence: GCLFYGPPGTGK, peptide start residue: 462) (UniProt Q6PL18)”: the log2 fold change was -0.392. “TTC27 (peptide sequence: IFYCCQVPPHWAIQR, peptide start residue: 430) (UniProt Q6P3X3)”: the log2 fold change was -0.261.

Consider “TTC19 (peptide sequence: EIYQEALK, peptide start residue: 339) (UniProt Q6DKK2)”, for which the log2 fold change is -0.402. As to “THOC7 (peptide sequence: ELEHLSHIK, peptide start residue: 145) (UniProt Q6I9Y2)”, the log2 fold change is -0.754. “C6orf89 (peptide sequence: CSFLHPEPVVGSK, peptide start residue: 263) (UniProt Q6UWU4)”: the log2 fold change came out at 0.139. On to “ZNF280D (peptide sequence: LIMLVNDFYYGKHEGDVQEEQK, peptide start residue: 295) (UniProt Q6N043)”, for which the log2 fold change came to 0.483. “INTS3 (peptide sequence: IGYHLLYYLR, peptide start residue: 687) (UniProt Q68E01)”: the log2 fold change was determined as 0.627. To “UniProt Q6P2H3 (peptide sequence: EAEFSSAGHSLQDK, peptide start residue: 541)” belongs -0.26; to “PRPF40B (peptide sequence: DLDDLEVLVK, peptide start residue: 166) (UniProt Q6NWY9)”, -0.321. On to “HIBCH (peptide sequence: LSQACMR, peptide start residue: 332) (UniProt Q6NVY1)”, for which the log2 fold change is 0.597. The value for “METTL2B (peptide sequence: TQTPPVEENVTQK, peptide start residue: 152) (UniProt Q6P1Q9)” was -0.348; that for “UniProt Q69YN4 (peptide sequence: QNTSRPPSMHVDDFVAAESK, peptide start residue: 1644)” was -0.211. As to “UniProt Q6RVD6 (peptide sequence: GGPGGLK, peptide start residue: 51)”, the log2 fold change came to 0.0105.

For “UniProt Q6ZMI0 (peptide sequence: ILLSSTESR, peptide start residue: 550)”, the log2 fold change amounted to 0.448. Turning to “DARS2 (peptide sequence: LECADLLETR, peptide start residue: 457) (UniProt Q6PI48)”, the log2 fold change is -0.459. To “LARP1 (peptide sequence: LEDFRVDPPMGEEGNHKR, peptide start residue: 1021) (UniProt Q6PKG0)” belongs -0.343; to “WDR73 (peptide sequence: SQVEPLFTHR, peptide start residue: 319) (UniProt Q6P4I2)”, 0.362. The value for “INO80C (peptide sequence: RLPSDVVTGYLALR, peptide start residue: 172) (UniProt Q6PI98)” was -0.154. As to “UniProt Q6GMV3 (peptide sequence: EEVGQYLK, peptide start residue: 127)”, the log2 fold change was -0.256. On to “UniProt Q6IPT4 (peptide sequence: FALPGNSQLGLR, peptide start residue: 97)”, for which the log2 fold change stood at 0.0651. Turning to “UniProt Q6ZMT4 (peptide sequence: AIEEENGK, peptide start residue: 474)”, the log2 fold change is 0.252. Take “HEATR6 (peptide sequence: HMGSIQAPTGDTARR, peptide start residue: 1138) (UniProt Q6AI08)”: the log2 fold change amounted to 0.276.

As for “ZFP1 (peptide sequence: NQTPIEER, peptide start residue: 75) (UniProt Q6P2D0)”, the log2 fold change was -0.102. In the case of “UniProt Q6PGQ7 (peptide sequence: DVIVPSPWTDHEGK, peptide start residue: 107)”, the log2 fold change stood at 0.222. Regarding “DUS1L (peptide sequence: PKLQGFEFWSR, peptide start residue: 2) (UniProt Q6P1R4)”, the log2 fold change turned out to be 0.35. Turning to “DHRS11 (peptide sequence: YAVTALTEGLR, peptide start residue: 171) (UniProt Q6UWP2)”, the log2 fold change is 0.484.

For the target “UniProt Q6EKJ0 (peptide sequence: EQVNDLFSR, peptide start residue: 870)”, the log2 fold change was -0.135. In the case of “FAM91A1 (peptide sequence: LSDASDER, peptide start residue: 670) (UniProt Q658Y4)”, the log2 fold change is -0.362. “KLC3 (peptide sequence: EATDLLHDALQIR, peptide start residue: 267) (UniProt Q6P597)”: the log2 fold change was -0.481.

As for “FBXO42 (peptide sequence: RGSLPDQK, peptide start residue: 486) (UniProt Q6P3S6)”, the log2 fold change was found to be 0.168. For the target “FAHD2B (peptide sequence: VVCVGMNYVDHCK, peptide start residue: 108) (UniProt Q6P2I3)”, the log2 fold change was found to be 1.12. “UniProt Q6ZMW2 (peptide sequence: AALVTSNSTHPK, peptide start residue: 228)”: the log2 fold change was 0.273.
